# Data from article PMC6667500.
# By UniProt entry, the sequences of proteins in these tests, tags left out.
# UniProt Q9H583: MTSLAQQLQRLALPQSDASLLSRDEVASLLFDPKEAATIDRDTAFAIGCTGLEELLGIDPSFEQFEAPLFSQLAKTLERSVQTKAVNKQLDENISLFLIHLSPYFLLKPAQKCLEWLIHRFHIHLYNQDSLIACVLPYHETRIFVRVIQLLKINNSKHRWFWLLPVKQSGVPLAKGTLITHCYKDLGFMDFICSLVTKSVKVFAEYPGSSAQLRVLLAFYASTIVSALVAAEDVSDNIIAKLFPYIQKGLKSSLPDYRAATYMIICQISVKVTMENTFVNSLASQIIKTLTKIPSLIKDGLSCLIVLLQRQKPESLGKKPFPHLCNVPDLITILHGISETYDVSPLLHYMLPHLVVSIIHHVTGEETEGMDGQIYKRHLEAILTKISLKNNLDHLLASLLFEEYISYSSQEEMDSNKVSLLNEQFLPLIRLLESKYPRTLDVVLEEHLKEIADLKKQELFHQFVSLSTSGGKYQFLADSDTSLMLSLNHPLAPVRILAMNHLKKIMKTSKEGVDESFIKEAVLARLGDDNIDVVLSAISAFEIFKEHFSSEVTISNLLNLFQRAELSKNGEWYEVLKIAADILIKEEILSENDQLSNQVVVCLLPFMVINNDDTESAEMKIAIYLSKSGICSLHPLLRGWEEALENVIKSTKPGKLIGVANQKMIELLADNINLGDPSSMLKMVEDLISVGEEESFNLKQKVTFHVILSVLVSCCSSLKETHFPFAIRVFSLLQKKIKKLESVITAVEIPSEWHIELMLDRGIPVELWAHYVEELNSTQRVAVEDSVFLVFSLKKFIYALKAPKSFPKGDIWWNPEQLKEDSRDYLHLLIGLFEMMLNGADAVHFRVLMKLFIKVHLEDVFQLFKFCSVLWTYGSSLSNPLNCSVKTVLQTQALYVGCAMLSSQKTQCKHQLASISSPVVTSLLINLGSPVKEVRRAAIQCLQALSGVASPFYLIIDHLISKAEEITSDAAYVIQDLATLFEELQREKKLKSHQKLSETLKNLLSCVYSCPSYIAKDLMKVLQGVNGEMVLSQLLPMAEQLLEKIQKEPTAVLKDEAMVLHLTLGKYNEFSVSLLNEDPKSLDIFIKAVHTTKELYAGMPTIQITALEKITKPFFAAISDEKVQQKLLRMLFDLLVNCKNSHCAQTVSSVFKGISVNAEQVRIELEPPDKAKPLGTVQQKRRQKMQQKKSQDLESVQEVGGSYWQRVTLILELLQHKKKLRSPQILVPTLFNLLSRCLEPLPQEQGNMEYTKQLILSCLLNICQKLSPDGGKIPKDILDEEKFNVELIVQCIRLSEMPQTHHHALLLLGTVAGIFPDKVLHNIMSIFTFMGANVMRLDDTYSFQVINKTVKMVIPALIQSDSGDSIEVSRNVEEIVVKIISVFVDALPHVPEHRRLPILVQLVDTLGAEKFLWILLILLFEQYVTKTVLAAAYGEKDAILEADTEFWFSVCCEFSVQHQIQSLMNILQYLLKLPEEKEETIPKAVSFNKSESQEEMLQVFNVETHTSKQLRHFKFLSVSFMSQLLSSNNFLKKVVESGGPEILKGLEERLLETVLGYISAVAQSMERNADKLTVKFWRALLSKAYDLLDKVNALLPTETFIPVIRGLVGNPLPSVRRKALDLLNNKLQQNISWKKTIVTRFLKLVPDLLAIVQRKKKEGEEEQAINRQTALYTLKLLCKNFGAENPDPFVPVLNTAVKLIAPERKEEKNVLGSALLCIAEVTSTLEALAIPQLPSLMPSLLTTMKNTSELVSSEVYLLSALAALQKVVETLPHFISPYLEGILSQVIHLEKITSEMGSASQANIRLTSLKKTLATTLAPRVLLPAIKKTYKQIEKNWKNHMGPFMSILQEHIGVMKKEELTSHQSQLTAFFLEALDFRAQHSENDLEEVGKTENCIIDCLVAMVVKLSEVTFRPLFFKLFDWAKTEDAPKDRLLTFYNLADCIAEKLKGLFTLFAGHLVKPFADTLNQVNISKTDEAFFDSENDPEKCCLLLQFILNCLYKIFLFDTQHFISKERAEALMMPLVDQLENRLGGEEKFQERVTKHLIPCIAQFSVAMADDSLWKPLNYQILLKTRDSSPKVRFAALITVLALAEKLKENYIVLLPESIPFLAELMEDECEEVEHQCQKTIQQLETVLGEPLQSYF
# UniProt O43143: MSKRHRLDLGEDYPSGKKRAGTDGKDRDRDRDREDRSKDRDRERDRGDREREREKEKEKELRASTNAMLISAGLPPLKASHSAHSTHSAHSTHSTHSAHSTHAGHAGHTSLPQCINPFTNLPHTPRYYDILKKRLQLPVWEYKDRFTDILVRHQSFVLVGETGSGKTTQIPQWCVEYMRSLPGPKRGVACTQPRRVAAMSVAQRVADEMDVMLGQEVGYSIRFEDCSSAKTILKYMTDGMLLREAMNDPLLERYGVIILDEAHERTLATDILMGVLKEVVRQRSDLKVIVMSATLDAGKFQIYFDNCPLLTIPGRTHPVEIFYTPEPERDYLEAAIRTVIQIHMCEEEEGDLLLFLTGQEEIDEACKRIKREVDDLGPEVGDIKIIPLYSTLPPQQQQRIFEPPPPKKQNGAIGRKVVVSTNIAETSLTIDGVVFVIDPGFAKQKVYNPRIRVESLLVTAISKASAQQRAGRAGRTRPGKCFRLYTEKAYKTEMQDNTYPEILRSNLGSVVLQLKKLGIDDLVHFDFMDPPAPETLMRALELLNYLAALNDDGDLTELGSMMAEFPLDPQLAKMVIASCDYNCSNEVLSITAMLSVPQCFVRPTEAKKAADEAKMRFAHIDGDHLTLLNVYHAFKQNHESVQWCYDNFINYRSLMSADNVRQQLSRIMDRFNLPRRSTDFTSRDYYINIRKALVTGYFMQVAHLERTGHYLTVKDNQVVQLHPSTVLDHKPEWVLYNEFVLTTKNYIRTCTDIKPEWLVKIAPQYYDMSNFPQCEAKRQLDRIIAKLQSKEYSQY
# T1: FLAG/HA-tagged AATF (apoptosis antagonizing transcription factor) (human) (UniProt Q9NY61)
# T1 sequence: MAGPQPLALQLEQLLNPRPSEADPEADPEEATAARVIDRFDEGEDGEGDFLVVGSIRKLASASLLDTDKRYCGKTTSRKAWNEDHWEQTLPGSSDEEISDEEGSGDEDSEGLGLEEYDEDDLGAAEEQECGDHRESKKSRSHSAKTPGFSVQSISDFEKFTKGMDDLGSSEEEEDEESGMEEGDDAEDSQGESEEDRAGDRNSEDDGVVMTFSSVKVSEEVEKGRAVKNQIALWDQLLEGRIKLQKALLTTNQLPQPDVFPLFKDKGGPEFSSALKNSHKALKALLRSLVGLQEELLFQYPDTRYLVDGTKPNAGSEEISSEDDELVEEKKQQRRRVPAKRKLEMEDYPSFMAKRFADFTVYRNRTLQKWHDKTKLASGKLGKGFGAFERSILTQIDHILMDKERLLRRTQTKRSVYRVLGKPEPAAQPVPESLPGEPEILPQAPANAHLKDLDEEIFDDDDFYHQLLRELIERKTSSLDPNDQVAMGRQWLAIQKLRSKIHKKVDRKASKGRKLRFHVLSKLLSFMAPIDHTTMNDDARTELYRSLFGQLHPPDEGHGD
# Target: T1, FLAG/HA-tagged AATF (apoptosis antagonizing transcription factor) (human)
# Test: affinity purification with mass spectrometry; FLAG/HA-AATF from stable inducible HEK 293T Flp-In T-REx cells captured on anti-FLAG beads (uMACS columns), modified RIPA buffer (1% NP-40, 150 mM NaCl, 0.25% sodium deoxycholate, 50 mM Tris), 2 h at 4 °C; compared with FLAG-GFP pulldown; 5 biological replicates; no RNase
row,binding,Molecule
1,binds,ribosome biogenesis factor HEAT Repeat-Containing Protein 1 (HEATR1) (from UniProt Q9H583 1-2144)
2,binds,DHX15 (from UniProt O43143 1-795)
3,binds,"WDR43 (protein, UniProt Q15061 1-677) MAAGGGGSCDPLAPAGVPCAFSPHSQAYFALASTDGHLRVWETANNRLHQEYVPSAHLSGTCTCLAWAPARLQAKESPQRKKRKSEAVGMSNQTDLLALGTAVGSILLYSTVKGELHSKLISGGHDNRVNCIQWHQDSGCLYSCSDDKHIVEWNVQTCKVKCKWKGDNSSVSSLCISPDGKMLLSAGRTIKLWVLETKEVYRHFTGHATPVSSLMFTTIRPPNESQPFDGITGLYFLSGAVHDRLLNVWQVRSENKEKSAVMSFTVTDEPVYIDLTLSENKEEPVKLAVVCRDGQVHLFEHILNGYCKKPLTSNCTIQIATPGKGKKSTPKPIPILAAGFCSDKMSLLLVYGSWFQPTIERVALNSREPHMCLVRDISNCWAPKVETAITKVRTPVMNSEAKVLVPGIPGHHAAIKPAPPQTEQVESKRKSGGNEVSIEERLGAMDIDTHKKGKEDLQTNSFPVLLTQGLESNDFEMLNKVLQTRNVNLIKKTVLRMPLHTIIPLLQELTKRLQGHPNSAVLMVQWLKCVLTVHASYLSTLPDLVPQLGTLYQLMESRVKTFQKLSHLHGKLILLITQVTASEKTKGATSPGQKAKLVYEEESSEEESDDEIADKDSEDNWDEDEEESESEKDEDVEEEDEDAEGKDEENGEDRDTASEKELNGDSDLDPENESEEE"
4,binds,"rRNA methyltransferase Nucleolar Protein 2 Homolog (NOP2) (protein, UniProt P46087 1-812) MGRKLDPTKEKRGPGRKARKQKGAETELVRFLPAVSDENSKRLSSRARKRAAKRRLGSVEAPKTNKSPEAKPLPGKLPKGISAGAVQTAGKKGPQSLFNAPRGKKRPAPGSDEEEEEEDSEEDGMVNHGDLWGSEDDADTVDDYGADSNSEDEEEGEALLPIERAARKQKAREAAAGIQWSEEETEDEEEEKEVTPESGPPKVEEADGGLQINVDEEPFVLPPAGEMEQDAQAPDLQRVHKRIQDIVGILRDFGAQREEGRSRSEYLNRLKKDLAIYYSYGDFLLGKLMDLFPLSELVEFLEANEVPRPVTLRTNTLKTRRRDLAQALINRGVNLDPLGKWSKTGLVVYDSSVPIGATPEYLAGHYMLQGASSMLPVMALAPQEHERILDMCCAPGGKTSYMAQLMKNTGVILANDANAERLKSVVGNLHRLGVTNTIISHYDGRQFPKVVGGFDRVLLDAPCSGTGVISKDPAVKTNKDEKDILRCAHLQKELLLSAIDSVNATSKTGGYLVYCTCSITVEENEWVVDYALKKRNVRLVPTGLDFGQEGFTRFRERRFHPSLRSTRRFYPHTHNMDGFFIAKFKKFSNSIPQSQTGNSETATPTNVDLPQVIPKSENSSQPAKKAKGAAKTKQQLQKQQHPKKASFQKLNGISKGADSELSTVPSVTKTQASSSFQDSSQPAGKAEGIREPKVTGKLKQRSPKLQSSKKVAFLRQNAPPKGTDTQTPAVLSPSKTQATLKPKDHHQPLGRAKGVEKQQLPEQPFEKAAFQKQNDTPKGPQPPTVSPIRSSRPPPAKRKKSQSRGNSQLLLS"
5,binds,"rRNA 2'-O-methyltransferase fibrillarin (FBL) (protein, UniProt P22087 1-321) MKPGFSPRGGGFGGRGGFGDRGGRGGRGGFGGGRGRGGGFRGRGRGGGGGGGGGGGGGRGGGGFHSGGNRGRGRGGKRGNQSGKNVMVEPHRHEGVFICRGKEDALVTKNLVPGESVYGEKRVSISEGDDKIEYRAWNPFRSKLAAAILGGVDQIHIKPGAKVLYLGAASGTTVSHVSDIVGPDGLVYAVEFSHRSGRDLINLAKKRTNIIPVIEDARHPHKYRMLIAMVDVIFADVAQPDQTRIVALNAHTFLRNGGHFVISIKANCIDSTASAEAVFASEVKKMQQENMKPQEQLTLEPYERDHAVVVGVYRPPPKVKN"

# No constants are given. Whether binding was seen depends on the method and setting. Binding seen in cells or lysates may run through a third protein. Here binding means that the protein was enriched with, or labelled near, the bait; the list need not be complete. Where a sequence is shown, tags or fusion partners need not be part of it.
